Laboratory results: PubChem BioAssay AID493014 (National Center for Advancing Translational Sciences (NCATS), 2011)
In all, about 340,000 compounds went through this assay and about 170 (0.05%) were called active. The inconclusive results got no clear call from the source; some entries with a clear call stand among them for comparison. Calls come from the whole dose curve; as a rule, active = well fitted inhibition curve with a large enough effect in the signal ratio, with a control signal flat (not every such curve was filed as active); inconclusive = small, poorly fitted or top-dose-only effect, or effect the other way, or a change in a side signal; inactive = flat fitted curve, though single readings scatter; the % refers to the signal ratio. Potencies beside an inconclusive call are fits to weak or partial responses and may not hold up.

Test: qHTS Assay to Find Inhibitors of Chronic Active B-Cell Receptor Signaling;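 for activity change, negative = inhibition: plate controls were basal doxycycline-induced cells for no effect and cells given 10 µM MG132 for full effect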
Conditions: ABC-DLBCL IkBa-CBG/CBR reporter, luminescence ratio (green luciferase fused to IkBa over red control in TMD8 lymphoma cells), 4 h; activity change, negative = inhibition: at 46.1 µM (top of the series) unless noted
How it was run: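 Concentration-response series (up to 46 uM) were applied to TMD8 dual-reporter cells for 4 h at 37C with doxycycline. Green/red ratio, after filter-overlap correction, defined %Activity; red signal alone was normalised to basal cells and zero luminescence.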
Potency is the fitted concentration of half-maximal effect.

Row | Structure (SMILES) | activity change, negative = inhibition | Potency
1 | O=C1c2ccc3c4c(ccc(c24)C(=O)N1CCCCO)C(=O)N(CCCCO)C3=O | inconclusive: 21.7% | –
2 | O=C(NCC1CCCO1)c1cc2ccccc2o1 (stereo not given) | inactive: -10.7% | –
3 | Cc1cccc(CNc2ncnc3ccc(-c4cccc(C)c4)cc23)c1 | inactive: 6.56% | –
4 | O=C(Cc1c(F)cccc1Cl)Nc1nc2ccccc2s1 | inconclusive: 3.39% | –
5 | COc1cccc(N2CCN(C(=O)CC(NC(=O)c3ccccc3)c3ccccc3)CC2)c1 (stereo not given) | inconclusive: 1.54% | –
6 | Cc1ccc(NC(=O)c2snc3c(=O)[nH]cnc23)cc1C | inconclusive: -0.866% | –
7 | O=C1c2cccc([N+](=O)[O-])c2C(=O)N1CCO | inactive: 2.64% | –
8 | COc1cc(OC)c2c(-c3ccccc3)cc(=O)oc2c1C(CCN1CCOCC1)c1ccc2c(c1)OCO2 (stereo not given) | – | inconclusive: 20.6 µM [cytotoxic, single point]
9 | N#CCSc1nnc(N)s1 | inactive: 3.53% | –
10 | Cc1nc2c(nnn2Cc2ccccc2)c(=O)[nH]1 | inactive: 2.06% | –
11 | COc1ccc(/C=C/C(=O)Nc2cccc(S(=O)(=O)N3CCCC3)c2)cc1OC | – | inconclusive: 28.2 µM [falling, partial curve, poor fit]
12 | CSC1=NCCN1C(=O)c1c(F)cccc1F | inconclusive: 15.5% | –
13 | CC(C)COC(=O)c1ccc(NC(=O)C2C3CCC(C3)C2C(=O)O)cc1 (stereo not given) | inconclusive: -0.241% | –
14 | CCc1nc(SCC(=O)c2ccc3c(c2)OCCO3)c2ccccc2n1 | inactive: 9.09% | –
15 | O=c1c(-c2nc3ccccc3o2)c2oc3ccccc3n2c2ccccc12 | inconclusive: 13% | –
16 | COc1ccc(CCNc2cc(C)nc3c(-c4ccccc4)cnn23)cc1OC | inconclusive: 18.3% | –
17 | COc1ccc2c(CC(=O)NCC3CCC(C(=O)O)CC3)cc(=O)oc2c1 (stereo not given) | – | inconclusive: 3.98 µM [falling, single point]
18 | CC(C)N1C(=O)CSC1c1ccc(Br)cc1 (stereo not given) | inactive: 0.864% | –
19 | CCOc1ccc(NC(=O)CN(C)C(=O)c2ccc(OCc3ccccc3)c(OC)c2)cc1OCC | inconclusive: 16.1% | –
20 | CC(C)c1ccc(NC(=O)/C(C#N)=C/c2ccncc2)cc1 | inconclusive: 7.48% | –
21 | CC(C)(C)c1ccc(C(=O)Nc2ccc(C(=O)NCc3cccnc3)cc2)cc1 | – | inconclusive: 22.4 µM [falling, single point]
22 | Cc1ccc(NC(=O)C(=O)NCc2ccncc2)cc1 | – | inconclusive: 17.8 µM [falling, partial curve]

Exported tab-delimited: 4 of the compounds above.
Row	Structure (SMILES)	activity change, negative = inhibition	Potency
6	Cc1ccc(NC(=O)c2snc3c(=O)[nH]cnc23)cc1C	inconclusive: -0.866%	–
13	CC(C)COC(=O)c1ccc(NC(=O)C2C3CCC(C3)C2C(=O)O)cc1 (stereo not given)	inconclusive: -0.241%	–
20	CC(C)c1ccc(NC(=O)/C(C#N)=C/c2ccncc2)cc1	inconclusive: 7.48%	–
21	CC(C)(C)c1ccc(C(=O)Nc2ccc(C(=O)NCc3cccnc3)cc2)cc1	–	inconclusive: 22.4 µM [falling, single point]

Given in CSV form: 2 of the compounds above
Row,Structure (SMILES),"activity change, negative = inhibition",Potency
13,CC(C)COC(=O)c1ccc(NC(=O)C2C3CCC(C3)C2C(=O)O)cc1 (stereo not given),inconclusive: -0.241%,–
14,CCc1nc(SCC(=O)c2ccc3c(c2)OCCO3)c2ccccc2n1,inactive: 9.09%,–

Further results

Row | Structure (SMILES) | activity change, negative = inhibition | Potency
23 | CCc1cc(Cn2nc(-c3ccccc3)cc2C(=O)NCC2CC2)on1 | inconclusive: -0.618% | –
24 | Cc1ccc(C2NC(=O)c3c(sc4c3CCN(C)C4)N2)s1 (stereo not given) | inactive: 3.98% | –
25 | Cn1c(O)c(N=Nc2ccccc2[N+](=O)[O-])c2ccccc21 | inactive: 0.373% | –
26 | Fc1ccc(C2CC(c3ccco3)=Nc3ccccc3S2)cc1 (stereo not given) | inconclusive: 11.4% | –
27 | C=CCn1c(SCc2ccccc2)nnc1-c1cccnc1 | inconclusive: -5.13% | –
28 | CC(=O)Nc1ccc(C(=O)OCCc2ccccc2)cc1 | inconclusive: -0.583% | –
29 | C/C=C/c1ccc(OCCOc2cccc3cccnc23)c(OC)c1 | inconclusive: 9.22% | –
30 | CN(C)c1ccc(/C=N/n2ncc3ccccc32)cc1 | inactive: -2.57% | –
31 | O=C(NCCc1ccccc1)C1CCN(S(=O)(=O)N2CCCC2)CC1 | inconclusive: 4.86% | –
32 | CCCCC(=O)NC(c1ccc(N(C)C)cc1)c1ccc2cccnc2c1O (stereo not given) | inactive: -6.26% | –
33 | CC(C)(C)OC(=O)C[C@H]1C/C=C\C[C@@H](CC(=O)N[C@H](CO)Cc2ccccc2)C(=O)NC[C@H](c2ccccc2)OC1=O | inactive: -0.108% | –
34 | CN(C)c1ccc(CNn2cnnc2SCc2ccc(F)cc2)cc1 | inconclusive: 5.11% | –
35 | COc1ccc(C2CC(c3ccccc3Cl)Nc3ncnn32)cc1OC (stereo not given) | – | inconclusive: 11.2 µM [falling, partial curve]
36 | Cc1ccc2nc(NC(=O)C3CC3C)sc2c1 (stereo not given) | – | inconclusive: 7.94 µM [falling, partial curve]
37 | NC(=S)N/N=C1\CC(c2ccc3c(c2)OCCO3)Oc2ccc(F)cc21 (stereo not given) | inconclusive: -9.82% | –
38 | CCOC(=O)C1=CN(Cc2cccc(-c3cccnc3)c2)S(=O)(=O)N(CC)C1C (stereo not given) | inconclusive: -0.755% | –
39 | O=C(C1=C[C@@H](C2CCCCC2)C[C@@H](OCCCCO)O1)N1CCN(Cc2ccc3c(c2)OCO3)CC1 | – | inconclusive: 35.5 µM [falling, single point]
40 | N=c1oc2ccccc2cc1C(=O)Nc1ccccc1 | – | inconclusive: 3.16 µM [falling, partial curve, poor fit]
41 | COc1ccccc1NC(=O)CSc1nc2sc(C)c(C)c2c(=O)n1Cc1ccco1 | inconclusive: -4.39% | –
42 | COc1ccc(Cn2c(CCC(=O)Nc3ccccc3OC)nc3cccnc32)cc1 | – | inconclusive: 28.2 µM [falling, partial curve, poor fit]
43 | O=C(CCc1ccccc1)Nc1nnc(-c2ccccn2)o1 | inactive: 4.36% | –
44 | O=C(/C=C/c1ccco1)Oc1cc(Br)cc(/C=N/NC(=O)c2ccccc2O)c1 | – | inconclusive: 4.11 µM [falling, single point]

Row | Structure (SMILES) | activity change, negative = inhibition | Potency
45 | COC(=O)c1ccc(NC(=O)CSc2nc(=O)n3cccc(C)c3n2)cc1 | inactive: -9.39% | –
46 | Nc1nc(-c2ccc3c(c2)CCCC3)cs1 | inconclusive: 6.36% | –
47 | Cc1cc(C)c(NC2=NCC(=O)N2C2CCCCC2)c(C)c1 | inconclusive: 3.08% | –
48 | CCNc1nc(NCc2ccccc2)nc(Oc2ccc(=O)[nH]n2)n1 | inconclusive: 2.36% | –
49 | COc1cccc(NCc2cc(=O)oc3cc(-c4ccccc4)c(O)cc23)c1 | inconclusive: -13.9% | –
50 | Oc1cccc(Nc2nc(-c3ccccc3Cl)nc3ccccc23)c1 | inconclusive: 1.49% | –
51 | Cc1ccnc2nc(C(=O)OCCOc3ccc(Cl)cc3)nn12 | inconclusive: 6.38% | –
52 | COC(=O)c1nc(-n2nc(C)cc2C)ccc1Cl | inconclusive: 17.4% | –
53 | O=C(CSc1n[nH]c(-c2cccs2)n1)N1CCOCC1 | inconclusive: -1.16% | –
54 | CC(=O)N1C=CN(C(C)=O)C(c2cn(C)c3ccccc23)C1c1cn(C)c2ccccc12 (stereo not given) | inconclusive: -10.6% | –
55 | COC(/C=C/Nc1ccc(C)cc1)=C(C#N)C#N | inconclusive: 9.02% | –
56 | CCCCCN(C(=O)CCC(=O)OCCOc1cccc(C)c1)c1c(N)n(CCCC)c(=O)[nH]c1=O | inactive: -1.79% | –
57 | CC1(C2CC2)NC(=O)N(CC(=O)N2CCN(c3ccccc3)CC2)C1=O (stereo not given) | inconclusive: 9.05% | –
58 | Cc1cccnc1Nc1nc(-c2ccc(F)cc2)cs1 | – | inconclusive: 25.1 µM [falling, single point]
59 | CC(/C=C/C=C/c1ccccc1)=N/NC(=O)c1ccc2c(c1)OCCO2 | inconclusive: -8.06% | –
60 | CCN(CC)CCNC(=O)c1ccc2c(=O)n3nc(Nc4ccccc4)sc3nc2c1 | – | inconclusive: 11.2 µM [falling, partial curve]
61 | COC(=O)c1ccc(NC(=O)COc2ccc([N+](=O)[O-])cc2)cc1 | inactive: 4.88% | –
62 | CCOC(=O)c1[nH]c2ccc(OC)cc2c1NC(=O)C(C)N1CCC2(CC1)OCCO2 (stereo not given) | inactive: -2.88% | –
63 | Cc1ccccc1CNC(=O)CC1C(=O)NCCN1Cc1c(F)cccc1Cl (stereo not given) | – | inconclusive: 14.1 µM [falling, partial curve, poor fit]
64 | Cc1ccc(CCNC(=O)C2CCN(S(=O)(=O)c3ccc4c(c3)oc(=O)n4C)CC2)cc1 | – | inconclusive: 11.2 µM [falling, partial curve, poor fit]
65 | Cc1ccc2nc(NC(=O)C3CCN(S(=O)(=O)c4cc([N+](=O)[O-])ccc4Cl)CC3)sc2c1 | inconclusive: 2.37% | –
66 | NS(=O)(=O)c1cccc(NC(=O)c2ccno2)c1 | inconclusive: 2.19% | –

Row | Structure (SMILES) | activity change, negative = inhibition | Potency
67 | COc1cccc(CNC(=O)CCC2CCCN(Cc3cc(Cl)ccc3O)C2)c1 (stereo not given) | – | inconclusive: 6.31 µM [falling, single point]
68 | CC(=NCc1ccco1)c1c(C(F)(F)F)[nH]n(-c2nc3ccccc3s2)c1=O | – | inconclusive: 3.66 µM [falling, partial curve]
69 | CCOC(=O)c1c(NC(=S)Nc2ccc(C)cc2)sc2c1CCC2 | inactive: 4.93% | –
70 | CCSc1nnc(SCC(=O)Nc2cc(C)on2)s1 | inconclusive: 7.78% | –
71 | CCC(C)NCCOCCOc1ccc(Br)cc1C (stereo not given) | inconclusive: -11.9% | –
72 | COCc1ccc(C(=O)N2CCCC(C(=O)c3ccc(SC)cc3)C2)s1 (stereo not given) | inconclusive: -7.55% | –
73 | Cc1ccc(-c2nc3c(c(SCC(=O)Nc4cccc(C(=O)O)c4)n2)Cc2cccc(C)c2O3)cc1 | inactive: 7.87% | –
74 | Cc1cccc(OCCSc2ncnc3nc[nH]c23)c1 | inconclusive: -19.1% | –
75 | COc1cccc(CN2CCCN(S(=O)(=O)c3ccc(Br)cc3)CC2)c1 | inactive: 0.373% | –
76 | O=C(Nc1cccc(-c2cnc3ccccc3n2)c1)c1ccco1 | inconclusive: -22.2% | –
77 | O=C(Nc1ccccn1)c1ccc(=O)[nH]n1 | inconclusive: 3.71% | –
78 | COc1ccc(C2CC(c3ccccc3)=NN2C(=O)CSc2nccc(=O)[nH]2)cc1 (stereo not given) | inconclusive: 11% | –
79 | CCCCOP(=O)(c1ccc(N(C)C)cc1)C(O)c1ccc(C(C)C)cc1 (stereo not given) | inconclusive: -9.09% | –
80 | Cc1ccc2nc(SCC(=O)N3CCC(Cc4ccccc4)CC3)nc(=O)n2c1 | inactive: 3.08% | –
81 | O=C(NN1CCOCC1)c1cc(Cl)ccc1Cl | inactive: -0.388% | –
82 | N#C/C(=C(\O)Cc1ccccc1)c1nc2ccccc2[nH]1 | inactive: 5.42% | –
83 | O=C(CCN1C(=O)S/C(=C/c2ccc(F)cc2)C1=O)Nc1ccc(O)c(C(=O)O)c1 | inconclusive: -12.2% | –
84 | C=CCN(CC=C)Cc1c(O)ccc2c(=O)c(-c3ccccc3)coc12 | inconclusive: 1.49% | –
85 | CC(C)(C)NC(=O)NC(=O)COC(=O)c1cccc(OC(F)F)c1 | – | inconclusive: 17.8 µM [falling, single point]
